Data: publication PMC5706886

The chains behind the UniProt entries cited, without tags or fusion partners.
UniProt Q9NPI1: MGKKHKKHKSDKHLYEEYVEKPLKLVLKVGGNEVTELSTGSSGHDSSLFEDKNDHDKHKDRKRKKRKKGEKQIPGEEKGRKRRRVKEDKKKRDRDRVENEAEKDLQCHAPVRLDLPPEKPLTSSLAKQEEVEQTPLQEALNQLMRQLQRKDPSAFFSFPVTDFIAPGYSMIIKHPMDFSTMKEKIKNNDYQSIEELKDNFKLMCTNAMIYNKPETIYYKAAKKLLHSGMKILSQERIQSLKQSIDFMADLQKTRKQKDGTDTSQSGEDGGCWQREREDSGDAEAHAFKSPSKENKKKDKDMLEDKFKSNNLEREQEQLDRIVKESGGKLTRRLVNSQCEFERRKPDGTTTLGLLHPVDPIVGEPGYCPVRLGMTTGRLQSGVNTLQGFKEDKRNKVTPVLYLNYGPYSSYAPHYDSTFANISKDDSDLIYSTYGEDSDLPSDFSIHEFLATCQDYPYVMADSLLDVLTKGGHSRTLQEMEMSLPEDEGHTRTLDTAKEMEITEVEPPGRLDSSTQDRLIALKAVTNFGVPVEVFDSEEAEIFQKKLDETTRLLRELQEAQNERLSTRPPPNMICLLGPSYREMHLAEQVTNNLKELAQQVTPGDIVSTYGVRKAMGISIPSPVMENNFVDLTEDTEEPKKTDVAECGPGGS

Target: T1, LDB2 (human (endogenous in HCC sample cells)) (UniProt O43679)
T1 sequence: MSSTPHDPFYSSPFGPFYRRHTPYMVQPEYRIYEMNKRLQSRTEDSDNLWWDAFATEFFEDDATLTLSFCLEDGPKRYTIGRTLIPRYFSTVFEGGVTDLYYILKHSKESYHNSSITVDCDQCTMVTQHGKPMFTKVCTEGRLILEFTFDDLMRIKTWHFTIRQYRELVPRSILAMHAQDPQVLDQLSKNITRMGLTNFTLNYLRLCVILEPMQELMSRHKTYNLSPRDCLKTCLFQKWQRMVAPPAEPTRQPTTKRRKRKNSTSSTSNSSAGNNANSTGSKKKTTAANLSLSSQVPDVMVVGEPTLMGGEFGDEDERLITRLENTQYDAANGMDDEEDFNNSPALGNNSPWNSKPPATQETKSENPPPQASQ
Assay: affinity purification with mass spectrometry; HCC sample cells lysed with RIPA lysis buffer; anti-LDB2 or IgG control at 4 °C overnight; Protein A/G beads 2 h at 4 °C; SDS-PAGE, silver staining; differential bands cut for MS (LTQ Orbitrap XL)

Bromodomain containing 7 (BRD7) (from UniProt Q9NPI1 1-651)
binding: binds

No constants are given. Whether binding was seen depends on the method and setting. Binding seen in cells or lysates may run through a third protein. Here binding means that the protein was enriched with, or labelled near, the bait; the list need not be complete.
